Source: article PMC9961694
No constants are given. Whether binding was seen depends on the method and setting. For some of these results: A result given as binding can be weak or reduced; the word gives no strength.

Columns and labels:
Test in all cases: two-hybrid; ORFs in prey vector pGADT7 (AD, yeast Y187) or bait vector pGBKT7 (BD, yeast Y2HGold), pairwise mating; diploids spotted (5 x 10^2, 5 x 10^3, 5 x 10^4 cells) on quadruple-dropout SDM/-Leu/-Trp/-Ade/-His/X-α-Gal/AbA, 3 days at 30 °C
WC2 (B. bassiana) = biological target: T1, WC2 (B. bassiana) (UniProt J5JYA0)
T1 sequence: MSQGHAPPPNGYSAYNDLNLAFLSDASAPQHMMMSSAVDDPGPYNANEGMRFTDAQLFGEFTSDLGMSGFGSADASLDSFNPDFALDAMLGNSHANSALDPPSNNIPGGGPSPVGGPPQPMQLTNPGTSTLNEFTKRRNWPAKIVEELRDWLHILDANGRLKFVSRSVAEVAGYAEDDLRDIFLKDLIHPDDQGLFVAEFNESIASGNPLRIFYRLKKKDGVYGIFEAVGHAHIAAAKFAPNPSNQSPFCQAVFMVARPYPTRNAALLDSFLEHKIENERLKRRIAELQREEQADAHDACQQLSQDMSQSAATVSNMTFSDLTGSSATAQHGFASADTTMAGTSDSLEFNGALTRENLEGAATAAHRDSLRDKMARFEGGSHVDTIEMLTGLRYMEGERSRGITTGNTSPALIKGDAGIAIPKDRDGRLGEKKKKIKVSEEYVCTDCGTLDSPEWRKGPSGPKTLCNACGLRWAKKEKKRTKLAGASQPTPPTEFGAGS

WC1 (B. bassiana) = biological target: T2, WC1 (B. bassiana) (UniProt J5J1K4)
T2 sequence: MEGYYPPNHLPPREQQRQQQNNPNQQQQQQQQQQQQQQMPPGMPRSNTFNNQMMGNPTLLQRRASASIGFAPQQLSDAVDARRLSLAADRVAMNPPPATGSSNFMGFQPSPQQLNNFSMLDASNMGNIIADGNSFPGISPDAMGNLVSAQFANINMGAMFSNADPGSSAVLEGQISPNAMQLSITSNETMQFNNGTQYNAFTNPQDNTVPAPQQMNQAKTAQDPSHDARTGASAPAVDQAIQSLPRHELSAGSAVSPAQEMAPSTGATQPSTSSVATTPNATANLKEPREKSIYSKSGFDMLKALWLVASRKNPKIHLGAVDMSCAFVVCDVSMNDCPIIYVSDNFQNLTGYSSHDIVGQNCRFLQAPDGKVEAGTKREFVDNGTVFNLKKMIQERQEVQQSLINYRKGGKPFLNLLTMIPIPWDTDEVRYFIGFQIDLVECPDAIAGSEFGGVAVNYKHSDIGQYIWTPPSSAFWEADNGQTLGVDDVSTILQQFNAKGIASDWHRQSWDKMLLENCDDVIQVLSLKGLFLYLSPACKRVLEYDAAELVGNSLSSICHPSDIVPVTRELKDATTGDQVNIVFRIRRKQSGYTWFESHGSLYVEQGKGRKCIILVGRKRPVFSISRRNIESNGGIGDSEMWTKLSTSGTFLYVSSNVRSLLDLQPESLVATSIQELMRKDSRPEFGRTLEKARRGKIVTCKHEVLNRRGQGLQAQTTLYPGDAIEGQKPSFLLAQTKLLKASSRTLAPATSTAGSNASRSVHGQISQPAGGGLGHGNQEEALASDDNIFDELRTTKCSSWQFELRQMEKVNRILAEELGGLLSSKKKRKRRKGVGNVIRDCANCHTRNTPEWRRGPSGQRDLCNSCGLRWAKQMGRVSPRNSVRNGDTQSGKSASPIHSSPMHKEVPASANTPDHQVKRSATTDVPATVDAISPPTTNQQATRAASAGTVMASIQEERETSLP

Phr1 (B. bassiana) = biological target: T3, Phr1 (B. bassiana) (UniProt J4KQS2)
T3 sequence: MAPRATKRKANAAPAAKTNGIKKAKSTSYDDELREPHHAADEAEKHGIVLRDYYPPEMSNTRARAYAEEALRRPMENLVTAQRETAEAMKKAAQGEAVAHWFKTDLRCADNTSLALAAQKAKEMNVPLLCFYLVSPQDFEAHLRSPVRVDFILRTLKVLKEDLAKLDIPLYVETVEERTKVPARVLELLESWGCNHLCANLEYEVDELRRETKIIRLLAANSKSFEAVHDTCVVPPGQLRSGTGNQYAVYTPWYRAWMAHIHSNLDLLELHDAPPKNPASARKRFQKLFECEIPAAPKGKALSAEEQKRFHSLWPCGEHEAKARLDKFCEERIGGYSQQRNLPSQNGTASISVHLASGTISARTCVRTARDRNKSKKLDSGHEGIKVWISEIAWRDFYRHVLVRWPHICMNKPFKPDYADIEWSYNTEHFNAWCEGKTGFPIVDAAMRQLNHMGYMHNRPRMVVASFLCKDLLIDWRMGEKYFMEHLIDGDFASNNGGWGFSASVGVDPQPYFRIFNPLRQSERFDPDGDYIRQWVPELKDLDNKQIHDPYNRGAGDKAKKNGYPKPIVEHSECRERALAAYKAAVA

Phr2 (B. bassiana) = biological target: T4, Phr2 (B. bassiana) (UniProt J4WK53)
T4 sequence: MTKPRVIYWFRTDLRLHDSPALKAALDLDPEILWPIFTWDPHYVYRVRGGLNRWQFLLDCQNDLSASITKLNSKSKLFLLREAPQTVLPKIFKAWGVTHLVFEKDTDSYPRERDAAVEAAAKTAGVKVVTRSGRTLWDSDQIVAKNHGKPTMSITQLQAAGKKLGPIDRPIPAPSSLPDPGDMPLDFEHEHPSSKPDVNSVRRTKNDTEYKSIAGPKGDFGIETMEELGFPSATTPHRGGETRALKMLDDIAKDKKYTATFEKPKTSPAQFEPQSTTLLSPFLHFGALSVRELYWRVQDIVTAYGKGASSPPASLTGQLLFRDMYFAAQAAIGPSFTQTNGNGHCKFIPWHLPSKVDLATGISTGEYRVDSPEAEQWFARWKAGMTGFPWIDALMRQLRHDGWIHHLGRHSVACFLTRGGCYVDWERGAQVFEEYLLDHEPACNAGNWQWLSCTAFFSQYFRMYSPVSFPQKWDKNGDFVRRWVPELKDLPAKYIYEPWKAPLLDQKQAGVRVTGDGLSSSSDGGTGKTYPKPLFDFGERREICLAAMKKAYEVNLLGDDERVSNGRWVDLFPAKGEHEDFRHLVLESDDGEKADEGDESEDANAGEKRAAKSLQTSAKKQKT

Rad23 (B. bassiana) = Rad23 (B. bassiana) (UniProt J5K7R4)
Rad4B (B. bassiana) = Rad4B (B. bassiana) (UniProt J4URE3)

| binding (WC2 (B. bassiana)) | binding (WC1 (B. bassiana)) | binding (Phr1 (B. bassiana)) | binding (Phr2 (B. bassiana)) | binding (Rad23 (B. bassiana)) | binding (Rad4B (B. bassiana)) | Substance |
| --- | --- | --- | --- | --- | --- | --- |
| no binding | no binding | no binding | no binding | binds | no binding | Rad4A (from UniProt J5JSN3) |
| no binding | no binding | no binding | no binding | binds |  | Rad4B (from UniProt J4URE3) |
| binds | no binding |  |  |  |  | Rad23 (from UniProt J5K7R4) |
